Data reported in PMC7884335.
Where a protein sequence is shown, tags need not be part of it.

Target: T1, His-RegX3 (Msm) (Mycobacterium smegmatis MC2 155) (UniProt Q9F868)
T1 sequence (looked up): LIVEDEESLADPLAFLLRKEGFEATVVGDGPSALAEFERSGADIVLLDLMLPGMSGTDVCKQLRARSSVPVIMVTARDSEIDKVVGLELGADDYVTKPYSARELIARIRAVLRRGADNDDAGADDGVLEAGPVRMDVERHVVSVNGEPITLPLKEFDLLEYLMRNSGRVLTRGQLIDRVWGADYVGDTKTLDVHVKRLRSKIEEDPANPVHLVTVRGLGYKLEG
Test: EMSA
Settings: 0.6 and 1.2 uM protein; EMSA: Tris-HCl pH 8.0, MgCl2, NaCl, EDTA, 1 mM DTT, 0.01% NP-40, 50 ug/ml poly[d(I-C)], glycerol (masses given, total volume not stated), room temperature 20 min; recombinant protein; residues 5-228; protein details: His6 (pET-28a(+), EcoRI/HindIII); label: biotin; probe letters rebuilt from the primers and the genome

AGCCAGTGGCGATAAGGCTCTTCCCGCAACCTGCGTAGGCGAGGGCCTATGAACGTCTTCGCCACACACACAGCCTAACCGCGATTCTTACACAGGATTTGCAAAGGCTGGCCCACCAGGACACAAAACTACGCATATACAGGCTCTTTACGTGCCATTAGGGGCTGCGTAGCGTGCGGATCATGCGTATTCACGACGTCCGCACCCGGCGCAGCGCCGAGGACTTCCCCCGCTCCGAACATCTCGCGTGGAAGATCGCGCAGGTCGCCGCCGACCCGGTCGCGGTCGACGCCGATGTCGAGGAGATGGTGCTCAACCGGATCATCGACAACGCTGCGGTGTCGGCGGCCTCGGTCACCCGTCGGCTTATCGCCACTGGCT (double strand) [prpR promoter 300 bp (Msm)]
binding result: binds
